doi:10.1101/2022.07.28.501905

Legend:
[1] = molecular target: T1, NLuc-RPW8.2 (Arabidopsis) (UniProt Q9C5Z6); assay: split reporter
T1 sequence: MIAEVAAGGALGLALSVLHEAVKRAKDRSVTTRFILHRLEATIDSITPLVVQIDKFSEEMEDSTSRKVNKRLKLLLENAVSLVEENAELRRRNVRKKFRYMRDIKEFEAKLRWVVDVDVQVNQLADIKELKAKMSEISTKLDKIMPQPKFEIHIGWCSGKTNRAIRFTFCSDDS

[2] = molecular target: T2, RPW8.2-CT (101-174 aa) fused to the GAL4 DNA-binding domain (Arabidopsis) (UniProt Q9C5Z6); assay: two-hybrid
T2 sequence: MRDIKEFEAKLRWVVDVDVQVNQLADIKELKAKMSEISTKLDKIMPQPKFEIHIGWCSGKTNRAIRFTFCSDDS

[3] = molecular target: T3, RPW8.2-NT (first 100 aa) fused to the GAL4 DNA-binding domain (Arabidopsis) (UniProt Q9C5Z6); assay: two-hybrid
T3 sequence: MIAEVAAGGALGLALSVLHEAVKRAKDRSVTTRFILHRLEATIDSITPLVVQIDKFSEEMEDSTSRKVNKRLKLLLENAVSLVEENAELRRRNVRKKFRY

[4] = molecular target: T4, RPW8.2-YC (Arabidopsis) (UniProt Q9C5Z6); assay: split reporter
T4 sequence: T1 sequence

binding [1]: binds
Substance: CLuc-GcR8IP1 (Golovinomyces cichoracearum UCSC1)

binding [2]: no binding | binding [3]: no binding
Substance: GcR8IP1-M2 (RING domain-deleted mutant) fused to the GAL4 activation domain (Golovinomyces cichoracearum UCSC1) (domain or fragment)

binding [4]: binds
Substance: YN-RING (RING domain of GcR8IP1) (Golovinomyces cichoracearum UCSC1) (domain or fragment)

No constants are given. Whether binding was seen depends on the method and setting. For some of these results: In cells and extracts the contact can be indirect. For some of these results: A result given as binding can be weak or reduced; the word gives no strength. For some of these results: Where a sequence is shown, tags or fusion partners need not be part of it. One block for each substance: values may come before it.
